From patent publication US20180362449A1, “THE EXOCYST AS A NOVEL DRUG TARGET OF ENDOSIDIN2 AND APPLICATION AS A THERAPEUTIC” (The Regents of the University of California, priority 2015, published 2018)
At least one compound was matched to its structure with a doubt left.

How the values were obtained:
EXO70A1 [1] = biological target: T1, EXO70A1 (Arabidopsis thaliana, UniProt Q9LZD3); assay type: binding; settings: 400 μM ES2, protease dilutions 1:3000 and 1:10,000, compared to actin
T1 construct: protein extracts from 16 days old seedlings grown from normal 0.5×MS agar media; from tissue; host or cells: Arabidopsis seedlings (16 days old), 16,000×g supernatant
T1 sequence (Q9LZD3 1-638): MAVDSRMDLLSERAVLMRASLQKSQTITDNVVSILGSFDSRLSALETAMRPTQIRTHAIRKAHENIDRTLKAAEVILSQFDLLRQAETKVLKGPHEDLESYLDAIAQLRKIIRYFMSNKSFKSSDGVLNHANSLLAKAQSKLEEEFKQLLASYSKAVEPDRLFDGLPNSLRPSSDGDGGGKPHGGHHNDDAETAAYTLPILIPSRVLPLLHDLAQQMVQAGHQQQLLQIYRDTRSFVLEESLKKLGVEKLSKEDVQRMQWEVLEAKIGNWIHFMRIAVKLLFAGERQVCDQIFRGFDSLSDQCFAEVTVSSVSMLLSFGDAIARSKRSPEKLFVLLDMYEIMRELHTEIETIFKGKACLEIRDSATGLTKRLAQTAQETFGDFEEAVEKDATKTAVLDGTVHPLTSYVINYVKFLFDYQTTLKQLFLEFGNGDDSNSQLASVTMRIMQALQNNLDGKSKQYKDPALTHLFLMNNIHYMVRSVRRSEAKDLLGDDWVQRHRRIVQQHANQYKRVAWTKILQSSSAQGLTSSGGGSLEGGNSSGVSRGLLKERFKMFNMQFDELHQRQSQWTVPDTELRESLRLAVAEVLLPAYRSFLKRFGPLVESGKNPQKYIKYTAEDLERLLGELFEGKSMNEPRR

EXO70A1 [2] = biological target: EXO70A1 (Arabidopsis thaliana, UniProt Q9LZD3); assay type: binding; settings: MST

## COc1cc(/C=N/NC(=O)c2cccc(F)c2)cc(I)c1O [ES2]
EXO70A1 [1]
  protection of EXO70A1 from degradation by pronase: significantly protected
EXO70A1 [2]
  Bmax (mean ± SE): 176 ± 26.9 µM
  R square: 81.7%
  h (Hill coefficient): 1.73 ± 0.436
